The test deals with T1, Sty1-GFP genomic fusion (S. pombe) (UniProt Q09892).
T1 sequence: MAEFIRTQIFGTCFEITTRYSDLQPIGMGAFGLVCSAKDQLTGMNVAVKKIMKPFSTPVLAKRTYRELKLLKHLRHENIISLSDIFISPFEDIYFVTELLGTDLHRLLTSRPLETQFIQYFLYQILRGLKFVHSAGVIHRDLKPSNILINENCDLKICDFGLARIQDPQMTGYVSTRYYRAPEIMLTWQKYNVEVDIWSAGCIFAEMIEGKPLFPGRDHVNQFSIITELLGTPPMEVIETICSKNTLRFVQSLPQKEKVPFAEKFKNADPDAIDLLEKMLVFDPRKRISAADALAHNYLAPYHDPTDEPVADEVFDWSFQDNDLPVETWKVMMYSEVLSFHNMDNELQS
Nature of the test: co-IP; whole-cell extracts (3 mg) of vegetatively growing S. pombe in 20 mM Tris-HCl pH 8.0, 2 mM EDTA, 100 mM NaCl, 0.5% NP-40; Dynabeads protein G with polyclonal anti-GFP antibody, 2 h at 4°C; blots with anti-GFP or anti-HA.

The text below walks through data of article PMC6946801.

No constants are given. Whether binding was seen depends on the method and setting. In cells and extracts the contact can be indirect. Some results given as binding are weak or reduced against the parent protein; the word gives no strength. Tags and fused reporters may be left off the sequences shown.

B1: Rnc1-3HA genomic fusion (protein, UniProt O74919 1-398)
chain: MAYNHFSIPKNIEEKENSFFDVTFQDEPDETTSTATGIAKVSIPTPKPSTPLSTLTNGSTIQQSMTNQPEPTSQVPPISAKPPMDDATYATQQLTLRALLSTREAGIIIGKAGKNVAELRSTTNVKAGVTKAVPNVHDRVLTISGPLENVVRAYRFIIDIFAKNSTNPDGTPSDANTPRKLRLLIAHSLMGSIIGRNGLRIKLIQDKCSCRMIASKDMLPQSTERTVEIHGTVDNLHAAIWEIGKCLIDDWERGAGTVFYNPVSRLTQPLPSLASTASPQQVSPPAAPSTTSGEAIPENFVSYGAQVFPATQMPFLQQPKVTQNISIPADMVGCIIGRGGSKISEIRRTSGSKISIAKEPHDETGERMFTITGTHEENEKALFLLYQQLEMEKDRRSH
B1: the binding entry is “binds”.
